Test results reported in paper PMC8373905.

Amino acid sequences for entries named in this document (tags omitted). A change or cut given only in a name is not applied to a line headed by its entry.
UniProt P28074: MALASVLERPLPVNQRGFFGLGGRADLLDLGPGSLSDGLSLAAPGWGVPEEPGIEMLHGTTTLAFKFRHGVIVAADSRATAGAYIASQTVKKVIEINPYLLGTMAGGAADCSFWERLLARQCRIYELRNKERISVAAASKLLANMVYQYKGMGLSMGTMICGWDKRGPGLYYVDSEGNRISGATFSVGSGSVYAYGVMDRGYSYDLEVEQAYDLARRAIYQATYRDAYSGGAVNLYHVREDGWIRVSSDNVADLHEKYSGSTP
UniProt P11387: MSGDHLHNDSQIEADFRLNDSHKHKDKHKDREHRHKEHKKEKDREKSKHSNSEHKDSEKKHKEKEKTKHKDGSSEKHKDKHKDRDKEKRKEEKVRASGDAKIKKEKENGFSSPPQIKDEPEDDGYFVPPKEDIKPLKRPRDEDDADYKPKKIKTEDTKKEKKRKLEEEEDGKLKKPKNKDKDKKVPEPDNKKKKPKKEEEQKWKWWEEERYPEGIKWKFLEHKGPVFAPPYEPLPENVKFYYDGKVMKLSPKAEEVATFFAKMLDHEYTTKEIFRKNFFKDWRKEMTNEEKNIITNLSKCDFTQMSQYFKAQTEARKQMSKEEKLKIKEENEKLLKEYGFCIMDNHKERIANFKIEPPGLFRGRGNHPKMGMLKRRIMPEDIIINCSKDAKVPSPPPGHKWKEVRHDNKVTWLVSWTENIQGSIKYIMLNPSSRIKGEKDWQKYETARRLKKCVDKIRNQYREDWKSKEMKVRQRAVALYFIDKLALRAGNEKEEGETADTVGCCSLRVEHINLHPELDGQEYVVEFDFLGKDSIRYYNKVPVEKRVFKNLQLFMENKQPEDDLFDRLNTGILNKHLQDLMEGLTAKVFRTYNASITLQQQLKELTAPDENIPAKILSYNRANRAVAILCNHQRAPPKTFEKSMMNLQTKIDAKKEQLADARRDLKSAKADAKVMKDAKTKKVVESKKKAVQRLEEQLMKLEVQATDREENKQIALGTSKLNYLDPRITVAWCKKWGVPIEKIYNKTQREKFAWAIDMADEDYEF

Target: PSMB5-FLAG (UniProt P28074)
Experiment: co-IP; anti-FLAG M2 IP from transfected HEK293 lysate treated with benzonase, washed with RIPA buffer; cells untreated or treated with CPT (20 µM, 30 min)

## TOP1 (topoisomerase I), endogenous (from UniProt P11387 1-765) (enzyme)
  binding: binds

No constants are given. Whether binding was seen depends on the method and setting. Binding seen in cells or lysates may run through a third protein. Binding can be weak; no strength is given.
